Data reported in publication PMC6678831.
No constants are given. Whether binding was seen depends on the method and setting. In cells and extracts the contact can be indirect. Some results given as binding are weak or reduced against the parent protein; the word gives no strength.

Amino acid sequences for entries named in this document (tags omitted). A change or cut given only in a name is not applied to a line headed by its entry. Chains listed by the source or under a name are the forms on record and can include a tag or linker.
UniProt P11802: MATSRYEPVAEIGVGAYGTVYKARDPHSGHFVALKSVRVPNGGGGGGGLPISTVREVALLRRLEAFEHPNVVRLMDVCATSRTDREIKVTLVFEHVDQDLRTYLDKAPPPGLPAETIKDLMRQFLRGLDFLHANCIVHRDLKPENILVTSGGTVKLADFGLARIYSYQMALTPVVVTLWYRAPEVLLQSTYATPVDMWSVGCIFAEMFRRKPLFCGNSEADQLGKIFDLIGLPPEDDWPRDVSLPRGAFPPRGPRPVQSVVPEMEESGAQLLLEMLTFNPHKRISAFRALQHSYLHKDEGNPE
UniProt Q00534: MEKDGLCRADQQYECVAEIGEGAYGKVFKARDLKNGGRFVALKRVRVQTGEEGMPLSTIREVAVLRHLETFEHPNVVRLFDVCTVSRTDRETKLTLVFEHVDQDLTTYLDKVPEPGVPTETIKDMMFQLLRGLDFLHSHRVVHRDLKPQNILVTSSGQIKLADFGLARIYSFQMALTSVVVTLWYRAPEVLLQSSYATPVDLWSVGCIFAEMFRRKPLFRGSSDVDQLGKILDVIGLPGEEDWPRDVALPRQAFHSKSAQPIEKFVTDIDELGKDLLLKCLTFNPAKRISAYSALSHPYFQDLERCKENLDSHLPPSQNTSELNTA
UniProt P06748: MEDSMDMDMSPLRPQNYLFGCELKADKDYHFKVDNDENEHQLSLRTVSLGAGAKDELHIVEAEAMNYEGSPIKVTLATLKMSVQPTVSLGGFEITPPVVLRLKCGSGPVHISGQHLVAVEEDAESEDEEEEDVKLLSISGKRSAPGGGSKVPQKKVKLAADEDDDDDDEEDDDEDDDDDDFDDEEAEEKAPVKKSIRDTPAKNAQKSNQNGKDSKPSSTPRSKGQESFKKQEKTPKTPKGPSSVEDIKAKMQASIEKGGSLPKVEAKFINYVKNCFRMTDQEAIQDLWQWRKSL
phospho-mimetic NPM/B23 mutant (Thr199D) (P06748, form named): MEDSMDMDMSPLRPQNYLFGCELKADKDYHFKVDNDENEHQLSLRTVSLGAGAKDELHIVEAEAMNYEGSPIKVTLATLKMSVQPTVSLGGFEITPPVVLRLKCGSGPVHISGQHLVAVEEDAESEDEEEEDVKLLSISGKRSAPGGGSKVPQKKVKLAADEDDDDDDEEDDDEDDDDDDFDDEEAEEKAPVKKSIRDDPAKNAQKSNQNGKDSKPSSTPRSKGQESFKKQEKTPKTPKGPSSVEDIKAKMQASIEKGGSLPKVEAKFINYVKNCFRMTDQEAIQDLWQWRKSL

Key:
HA-CDK4 = HA-CDK4 (UniProt P11802); experiment: co-IP; ARK2 cells transiently transfected with pcDNA, HA-CDK4 or HA-CDK6 for 24 h; whole-cell lysates immunoprecipitated with anti-HA antibody; blot with anti-HA or anti-NPM/B23 (endogenous NPM/B23)
[1] = biological target: CDK6 (human (endogenous in ARK2)) (UniProt Q00534); experiment: co-IP; ARK2 whole-cell lysates (WCE lysis buffer: 20 mM HEPES, 10% glycerol, 0.5% Triton X-100, 0.2 M NaCl, 1 mM EDTA, 1 mM EGTA) immunoprecipitated with anti-CDK6 antibody, protein G-sepharose, 4 °C; blot with anti-NPM/B23; both proteins endogenous; control IgG as mock; also done after 2 µM palbociclib for 24 h (interaction significantly weakened)
[2] = biological target: CDK6 (human (endogenous in ARK2)) (UniProt Q00534); experiment: co-IP; ARK2 cells transfected with NPM/B23 (Thr199A) or NPM/B23 (Thr199D) for 24 h; lysates immunoprecipitated with anti-CDK6 antibody (endogenous CDK6); blot with anti-CDK6 or anti-NPM/B23; control IgG as mock

Row | Substance | binding (HA-CDK4) | binding [1] | binding [2]
1 | NPM/B23 (nucleophosmin) (from UniProt P06748 1-294) | no binding | binds | 
2 | phospho-mimetic NPM/B23 mutant (Thr199D) (from UniProt P06748 1-294) |  |  | binds
